Data: patent publication US20110300141A1
No constants are given. Whether binding was seen depends on the method and setting. Some results given as binding are weak or reduced against the parent protein; the word gives no strength.

Sequences of proteins named here, by UniProt entry; tags and fusion partners are left off. Residues count along the entry.
UniProt P05067, residues 672-713: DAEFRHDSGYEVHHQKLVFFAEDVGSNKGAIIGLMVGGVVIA

Each binder was assayed against Aβ (UniProt P05067) (assay: sequestration of Aβ from solutions with serum).
For FSSMPDPVDPTTVTKTFKTRKASAQASLASKDKTPKSKSK [Peptide P4], the binding was “binds”. KDKTPKSKSKKRNSTQLKSRVKNITHARRILQQSNRNACN [Peptide P5] was tested, and the binding was “binds”. In the case of KTFKTRKASAQASLASKDKTPKSKSKKRNSTQLKSRVKNI [Peptide P4-5], the binding is reported as “binds”.
